Measured values: the supplement of paper PMC7666118
This is one part of the list.

Protein sequences, listed by entry. Tags and fused reporters are not part of them. Lines headed by an entry give the natural chain unless they say otherwise; changes in a name come on top.
UniProt Q96EW2: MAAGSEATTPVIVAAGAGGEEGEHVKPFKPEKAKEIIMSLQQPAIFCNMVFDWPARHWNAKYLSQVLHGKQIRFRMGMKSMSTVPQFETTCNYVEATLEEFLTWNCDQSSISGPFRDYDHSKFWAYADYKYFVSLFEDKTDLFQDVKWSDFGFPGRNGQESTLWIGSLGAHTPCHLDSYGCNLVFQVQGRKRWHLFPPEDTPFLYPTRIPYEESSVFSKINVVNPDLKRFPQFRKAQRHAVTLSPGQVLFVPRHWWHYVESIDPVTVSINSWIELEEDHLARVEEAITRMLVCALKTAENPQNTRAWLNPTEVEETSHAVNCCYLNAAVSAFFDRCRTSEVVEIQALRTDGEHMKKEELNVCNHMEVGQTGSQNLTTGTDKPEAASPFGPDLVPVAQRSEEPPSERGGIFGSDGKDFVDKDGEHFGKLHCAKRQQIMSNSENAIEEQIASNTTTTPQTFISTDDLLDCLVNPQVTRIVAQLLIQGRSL
UniProt O43299: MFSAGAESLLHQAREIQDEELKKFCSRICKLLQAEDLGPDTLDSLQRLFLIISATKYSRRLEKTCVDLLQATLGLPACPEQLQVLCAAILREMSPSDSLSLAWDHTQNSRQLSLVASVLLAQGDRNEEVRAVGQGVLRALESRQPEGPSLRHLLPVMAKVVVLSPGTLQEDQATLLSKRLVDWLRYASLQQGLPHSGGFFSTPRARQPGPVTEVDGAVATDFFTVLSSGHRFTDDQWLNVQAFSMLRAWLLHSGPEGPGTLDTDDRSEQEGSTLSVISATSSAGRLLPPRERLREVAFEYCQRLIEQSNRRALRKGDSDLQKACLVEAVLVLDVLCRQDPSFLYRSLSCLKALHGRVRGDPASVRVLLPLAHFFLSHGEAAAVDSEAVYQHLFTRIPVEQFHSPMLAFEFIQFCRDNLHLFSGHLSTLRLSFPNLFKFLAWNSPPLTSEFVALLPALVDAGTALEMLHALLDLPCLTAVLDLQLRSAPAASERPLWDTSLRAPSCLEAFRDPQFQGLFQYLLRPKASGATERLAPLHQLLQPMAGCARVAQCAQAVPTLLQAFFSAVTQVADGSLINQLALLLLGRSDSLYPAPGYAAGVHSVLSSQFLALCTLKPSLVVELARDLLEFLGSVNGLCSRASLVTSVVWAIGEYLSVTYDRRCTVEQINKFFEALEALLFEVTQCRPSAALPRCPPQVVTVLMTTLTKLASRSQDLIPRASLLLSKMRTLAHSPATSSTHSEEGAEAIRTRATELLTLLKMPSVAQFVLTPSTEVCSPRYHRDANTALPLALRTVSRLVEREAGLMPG
UniProt P11717, whole entry: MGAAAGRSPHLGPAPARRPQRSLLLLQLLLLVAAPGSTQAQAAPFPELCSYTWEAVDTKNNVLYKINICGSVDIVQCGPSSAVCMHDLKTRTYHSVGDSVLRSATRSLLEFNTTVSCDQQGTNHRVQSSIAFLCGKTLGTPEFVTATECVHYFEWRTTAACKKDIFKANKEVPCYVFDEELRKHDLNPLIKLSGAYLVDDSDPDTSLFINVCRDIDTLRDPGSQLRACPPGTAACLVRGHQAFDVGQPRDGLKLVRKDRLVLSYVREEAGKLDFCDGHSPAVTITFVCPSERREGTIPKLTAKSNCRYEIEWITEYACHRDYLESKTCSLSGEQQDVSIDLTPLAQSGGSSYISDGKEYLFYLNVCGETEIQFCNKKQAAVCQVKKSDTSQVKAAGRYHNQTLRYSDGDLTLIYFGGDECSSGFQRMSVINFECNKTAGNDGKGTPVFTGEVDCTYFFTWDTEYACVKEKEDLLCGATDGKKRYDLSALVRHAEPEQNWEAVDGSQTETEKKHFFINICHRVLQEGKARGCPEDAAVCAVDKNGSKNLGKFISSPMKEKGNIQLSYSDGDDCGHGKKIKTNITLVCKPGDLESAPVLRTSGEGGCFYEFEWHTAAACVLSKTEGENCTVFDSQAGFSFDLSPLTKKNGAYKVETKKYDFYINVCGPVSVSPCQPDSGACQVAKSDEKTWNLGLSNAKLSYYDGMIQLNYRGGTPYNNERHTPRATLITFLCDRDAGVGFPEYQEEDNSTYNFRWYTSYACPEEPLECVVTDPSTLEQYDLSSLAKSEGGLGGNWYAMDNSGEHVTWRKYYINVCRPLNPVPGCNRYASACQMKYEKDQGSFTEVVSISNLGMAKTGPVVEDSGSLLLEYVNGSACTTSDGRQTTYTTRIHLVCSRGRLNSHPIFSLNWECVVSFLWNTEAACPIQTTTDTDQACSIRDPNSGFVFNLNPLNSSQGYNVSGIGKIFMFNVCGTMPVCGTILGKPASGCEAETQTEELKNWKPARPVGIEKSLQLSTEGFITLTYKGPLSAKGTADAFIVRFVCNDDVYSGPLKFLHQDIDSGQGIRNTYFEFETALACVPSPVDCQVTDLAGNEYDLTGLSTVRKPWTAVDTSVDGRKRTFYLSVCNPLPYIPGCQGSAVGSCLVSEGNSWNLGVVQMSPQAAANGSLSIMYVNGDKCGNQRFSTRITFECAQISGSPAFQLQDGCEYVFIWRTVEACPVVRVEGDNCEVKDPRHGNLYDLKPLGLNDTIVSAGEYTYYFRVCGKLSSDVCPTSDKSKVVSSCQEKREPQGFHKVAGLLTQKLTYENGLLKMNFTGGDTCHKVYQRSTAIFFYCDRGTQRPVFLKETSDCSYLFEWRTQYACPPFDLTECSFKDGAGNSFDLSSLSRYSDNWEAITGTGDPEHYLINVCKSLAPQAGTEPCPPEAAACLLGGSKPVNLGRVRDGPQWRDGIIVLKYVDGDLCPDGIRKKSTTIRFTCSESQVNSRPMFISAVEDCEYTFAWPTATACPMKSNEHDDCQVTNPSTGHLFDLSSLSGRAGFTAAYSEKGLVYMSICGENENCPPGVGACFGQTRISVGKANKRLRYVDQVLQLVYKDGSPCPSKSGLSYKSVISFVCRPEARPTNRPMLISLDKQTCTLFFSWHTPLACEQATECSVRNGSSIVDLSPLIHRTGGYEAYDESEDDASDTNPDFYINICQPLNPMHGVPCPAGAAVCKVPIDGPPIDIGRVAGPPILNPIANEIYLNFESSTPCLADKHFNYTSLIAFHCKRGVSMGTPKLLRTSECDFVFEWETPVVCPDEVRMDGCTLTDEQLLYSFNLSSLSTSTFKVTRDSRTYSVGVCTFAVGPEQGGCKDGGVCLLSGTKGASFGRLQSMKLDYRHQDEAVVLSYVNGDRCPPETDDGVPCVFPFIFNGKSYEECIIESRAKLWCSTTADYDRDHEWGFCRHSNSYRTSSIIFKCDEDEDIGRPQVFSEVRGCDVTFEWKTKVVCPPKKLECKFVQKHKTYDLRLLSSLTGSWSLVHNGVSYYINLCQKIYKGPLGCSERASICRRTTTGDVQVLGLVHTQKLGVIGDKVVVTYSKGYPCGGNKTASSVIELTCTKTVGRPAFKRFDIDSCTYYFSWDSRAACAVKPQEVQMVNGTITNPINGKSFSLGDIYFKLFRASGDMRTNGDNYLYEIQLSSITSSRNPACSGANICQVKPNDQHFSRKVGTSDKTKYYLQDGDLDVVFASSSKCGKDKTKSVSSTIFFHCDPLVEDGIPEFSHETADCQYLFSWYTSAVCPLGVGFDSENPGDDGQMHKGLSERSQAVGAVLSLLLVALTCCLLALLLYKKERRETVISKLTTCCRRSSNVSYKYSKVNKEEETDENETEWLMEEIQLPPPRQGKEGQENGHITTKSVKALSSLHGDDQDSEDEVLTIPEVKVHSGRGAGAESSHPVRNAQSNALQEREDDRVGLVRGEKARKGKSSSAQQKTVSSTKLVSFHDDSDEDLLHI
UniProt O15357: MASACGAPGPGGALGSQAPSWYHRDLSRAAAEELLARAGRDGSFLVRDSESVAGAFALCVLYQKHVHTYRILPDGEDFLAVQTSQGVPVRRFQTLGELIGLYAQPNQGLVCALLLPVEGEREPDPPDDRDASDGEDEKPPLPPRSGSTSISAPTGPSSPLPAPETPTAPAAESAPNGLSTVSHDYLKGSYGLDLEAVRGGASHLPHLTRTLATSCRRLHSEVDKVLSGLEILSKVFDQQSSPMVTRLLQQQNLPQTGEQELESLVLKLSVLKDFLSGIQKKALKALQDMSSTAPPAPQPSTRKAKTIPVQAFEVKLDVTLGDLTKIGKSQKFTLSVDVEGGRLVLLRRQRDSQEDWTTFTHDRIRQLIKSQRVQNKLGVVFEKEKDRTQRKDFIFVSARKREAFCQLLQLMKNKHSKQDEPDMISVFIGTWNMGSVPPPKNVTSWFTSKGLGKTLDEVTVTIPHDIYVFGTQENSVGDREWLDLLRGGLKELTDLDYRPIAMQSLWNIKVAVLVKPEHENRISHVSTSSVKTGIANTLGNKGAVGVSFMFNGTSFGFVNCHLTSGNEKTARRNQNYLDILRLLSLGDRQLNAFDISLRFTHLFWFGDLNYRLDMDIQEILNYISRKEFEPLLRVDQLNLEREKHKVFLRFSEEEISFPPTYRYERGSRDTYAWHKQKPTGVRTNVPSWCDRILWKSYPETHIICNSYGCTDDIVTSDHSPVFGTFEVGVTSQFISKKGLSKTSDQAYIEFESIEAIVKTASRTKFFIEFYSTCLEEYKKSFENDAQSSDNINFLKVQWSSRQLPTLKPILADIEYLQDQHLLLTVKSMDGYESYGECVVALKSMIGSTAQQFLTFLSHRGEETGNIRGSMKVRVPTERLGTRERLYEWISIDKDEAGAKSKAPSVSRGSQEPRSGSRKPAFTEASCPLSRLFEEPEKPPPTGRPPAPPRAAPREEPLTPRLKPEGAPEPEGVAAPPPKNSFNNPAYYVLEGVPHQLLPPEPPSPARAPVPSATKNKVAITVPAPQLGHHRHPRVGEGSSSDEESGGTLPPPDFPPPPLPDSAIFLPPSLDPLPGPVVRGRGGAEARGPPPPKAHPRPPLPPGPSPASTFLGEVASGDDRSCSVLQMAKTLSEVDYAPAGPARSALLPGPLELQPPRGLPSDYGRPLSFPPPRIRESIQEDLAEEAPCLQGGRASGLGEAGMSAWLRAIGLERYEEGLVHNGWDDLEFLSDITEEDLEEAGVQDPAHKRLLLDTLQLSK
UniProt Q9NSC5: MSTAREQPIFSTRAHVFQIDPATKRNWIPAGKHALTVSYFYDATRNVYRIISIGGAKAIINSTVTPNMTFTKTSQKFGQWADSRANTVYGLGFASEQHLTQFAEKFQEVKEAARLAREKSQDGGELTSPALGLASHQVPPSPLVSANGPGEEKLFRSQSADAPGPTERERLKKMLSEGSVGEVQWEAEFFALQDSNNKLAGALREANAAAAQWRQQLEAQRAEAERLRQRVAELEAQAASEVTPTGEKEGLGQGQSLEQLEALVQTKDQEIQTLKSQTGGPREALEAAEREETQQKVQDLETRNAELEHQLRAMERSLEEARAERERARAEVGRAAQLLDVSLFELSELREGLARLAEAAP
UniProt Q13907: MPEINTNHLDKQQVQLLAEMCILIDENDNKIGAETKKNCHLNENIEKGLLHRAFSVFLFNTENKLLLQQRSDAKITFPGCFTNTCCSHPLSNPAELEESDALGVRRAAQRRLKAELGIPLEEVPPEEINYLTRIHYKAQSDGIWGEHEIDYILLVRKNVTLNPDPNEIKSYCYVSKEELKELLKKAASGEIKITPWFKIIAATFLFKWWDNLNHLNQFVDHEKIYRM
UniProt Q0VDF9: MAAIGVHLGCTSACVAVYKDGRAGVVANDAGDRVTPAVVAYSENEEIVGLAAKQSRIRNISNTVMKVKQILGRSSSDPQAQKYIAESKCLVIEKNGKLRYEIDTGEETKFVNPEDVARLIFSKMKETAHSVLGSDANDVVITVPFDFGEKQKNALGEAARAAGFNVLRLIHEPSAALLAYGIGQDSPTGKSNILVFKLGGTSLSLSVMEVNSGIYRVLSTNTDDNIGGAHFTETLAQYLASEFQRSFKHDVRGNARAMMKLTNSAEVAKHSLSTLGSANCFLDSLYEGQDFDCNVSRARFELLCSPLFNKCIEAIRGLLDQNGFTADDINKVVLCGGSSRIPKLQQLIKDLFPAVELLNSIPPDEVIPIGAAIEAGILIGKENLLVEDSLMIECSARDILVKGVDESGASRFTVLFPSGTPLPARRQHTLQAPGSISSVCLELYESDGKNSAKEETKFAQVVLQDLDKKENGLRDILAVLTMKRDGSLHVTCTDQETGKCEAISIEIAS
UniProt O75525: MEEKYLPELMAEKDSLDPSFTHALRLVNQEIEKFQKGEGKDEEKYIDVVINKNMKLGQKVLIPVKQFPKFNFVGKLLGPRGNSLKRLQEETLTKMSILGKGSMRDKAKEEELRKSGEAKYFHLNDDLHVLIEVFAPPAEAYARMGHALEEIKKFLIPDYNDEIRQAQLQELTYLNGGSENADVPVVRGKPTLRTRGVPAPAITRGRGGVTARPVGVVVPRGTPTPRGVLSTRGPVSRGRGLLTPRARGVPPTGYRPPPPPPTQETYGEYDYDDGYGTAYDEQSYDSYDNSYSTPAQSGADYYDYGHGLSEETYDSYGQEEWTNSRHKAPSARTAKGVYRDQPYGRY

Compound: COc1ccc(Cn2ccc3ccc(C(=O)NO)cc32)cc1
Assay: dose-dependent thermal stabilisation call (2D-TPP, DLPTP, 10% FDR) (binary (1 = stabilised)); higher = stabilised by the compound
Conditions: system: HL-60 intact cells; concentration range 0.04-10 µM

Row | Target | dose-dependent thermal stabilisation call
1 | HSPBAP1 (UniProt Q96EW2) | inactive: 0
2 | HSP90AB1 (UniProt P08238) | inactive: 0
3 | JMJD2A (UniProt O75164) | inactive: 0
4 | HNRNPUL1 (UniProt Q9BUJ2) | inactive: 0
5 | HTT (UniProt P42858) | inactive: 0
6 | IMMT (UniProt Q16891) | inactive: 0
7 | INF2 (UniProt Q27J81) | inactive: 0
8 | IFNGR1 (UniProt P15260) | inactive: 0
9 | HSPA13 (UniProt P48723) | inactive: 0
10 | ITPA (UniProt Q9BY32) | inactive: 0
11 | HMGB3 (UniProt O15347) | inactive: 0
12 | HMGXB4 (UniProt Q9UGU5) | inactive: 0
13 | HYPK (UniProt Q9NX55) | inactive: 0
14 | INPP5B (UniProt P32019) | inactive: 0
15 | ITGAV (UniProt P06756) | inactive: 0
16 | ILK (UniProt Q13418) | inactive: 0
17 | ICMT (UniProt O60725) | inactive: 0
18 | KIAA0415 (UniProt O43299) | inactive: 0
19 | INTS7 (UniProt Q9NVH2) | inactive: 0

Row | Target | dose-dependent thermal stabilisation call
20 | IGF2R (UniProt P11717) | inactive: 0
21 | HMG20A (UniProt Q9NP66) | inactive: 0
22 | IRF2BP2 (UniProt Q7Z5L9) | inactive: 0
23 | HPS3 (UniProt Q969F9) | inactive: 0
24 | JARID1C (UniProt P41229) | inactive: 0
25 | INPPL1 (UniProt O15357) | inactive: 0
26 | INHBE (UniProt P58166) | inactive: 0
27 | HOMER3 (UniProt Q9NSC5) | inactive: 0
28 | HUS1 (UniProt O60921) | inactive: 0
29 | KIAA0467 (UniProt Q5T011) | inactive: 0
30 | HMMR (UniProt O75330) | inactive: 0
31 | HN1 (UniProt Q9UK76) | inactive: 0
32 | IDI1 (UniProt Q13907) | inactive: 0
33 | ITM2C (UniProt Q9NQX7) | inactive: 0
34 | HNRNPF (UniProt P52597) | inactive: 0
35 | IFT81 (UniProt Q8WYA0) | inactive: 0
36 | HSPA14 (UniProt Q0VDF9) | inactive: 0
37 | IDH3A (UniProt P50213) | inactive: 0
38 | KHDRBS3 (UniProt O75525) | inactive: 0

6 entries from above, as tab-separated lines:
Row	Target	dose-dependent thermal stabilisation call
17	ICMT (UniProt O60725)	inactive: 0
18	KIAA0415 (UniProt O43299)	inactive: 0
19	INTS7 (UniProt Q9NVH2)	inactive: 0
20	IGF2R (UniProt P11717)	inactive: 0
21	HMG20A (UniProt Q9NP66)	inactive: 0
22	IRF2BP2 (UniProt Q7Z5L9)	inactive: 0
